Assay results from patent US20170342151A1.
These are yes or no findings as the source states them, for the method shown. Some entries that bind do so weakly or less than the wild type.

Sequences of proteins named here, by UniProt entry; tags and fusion partners are left off. A change or cut given only in a name is not applied to a line headed by its entry.
UniProt Q6UVK1: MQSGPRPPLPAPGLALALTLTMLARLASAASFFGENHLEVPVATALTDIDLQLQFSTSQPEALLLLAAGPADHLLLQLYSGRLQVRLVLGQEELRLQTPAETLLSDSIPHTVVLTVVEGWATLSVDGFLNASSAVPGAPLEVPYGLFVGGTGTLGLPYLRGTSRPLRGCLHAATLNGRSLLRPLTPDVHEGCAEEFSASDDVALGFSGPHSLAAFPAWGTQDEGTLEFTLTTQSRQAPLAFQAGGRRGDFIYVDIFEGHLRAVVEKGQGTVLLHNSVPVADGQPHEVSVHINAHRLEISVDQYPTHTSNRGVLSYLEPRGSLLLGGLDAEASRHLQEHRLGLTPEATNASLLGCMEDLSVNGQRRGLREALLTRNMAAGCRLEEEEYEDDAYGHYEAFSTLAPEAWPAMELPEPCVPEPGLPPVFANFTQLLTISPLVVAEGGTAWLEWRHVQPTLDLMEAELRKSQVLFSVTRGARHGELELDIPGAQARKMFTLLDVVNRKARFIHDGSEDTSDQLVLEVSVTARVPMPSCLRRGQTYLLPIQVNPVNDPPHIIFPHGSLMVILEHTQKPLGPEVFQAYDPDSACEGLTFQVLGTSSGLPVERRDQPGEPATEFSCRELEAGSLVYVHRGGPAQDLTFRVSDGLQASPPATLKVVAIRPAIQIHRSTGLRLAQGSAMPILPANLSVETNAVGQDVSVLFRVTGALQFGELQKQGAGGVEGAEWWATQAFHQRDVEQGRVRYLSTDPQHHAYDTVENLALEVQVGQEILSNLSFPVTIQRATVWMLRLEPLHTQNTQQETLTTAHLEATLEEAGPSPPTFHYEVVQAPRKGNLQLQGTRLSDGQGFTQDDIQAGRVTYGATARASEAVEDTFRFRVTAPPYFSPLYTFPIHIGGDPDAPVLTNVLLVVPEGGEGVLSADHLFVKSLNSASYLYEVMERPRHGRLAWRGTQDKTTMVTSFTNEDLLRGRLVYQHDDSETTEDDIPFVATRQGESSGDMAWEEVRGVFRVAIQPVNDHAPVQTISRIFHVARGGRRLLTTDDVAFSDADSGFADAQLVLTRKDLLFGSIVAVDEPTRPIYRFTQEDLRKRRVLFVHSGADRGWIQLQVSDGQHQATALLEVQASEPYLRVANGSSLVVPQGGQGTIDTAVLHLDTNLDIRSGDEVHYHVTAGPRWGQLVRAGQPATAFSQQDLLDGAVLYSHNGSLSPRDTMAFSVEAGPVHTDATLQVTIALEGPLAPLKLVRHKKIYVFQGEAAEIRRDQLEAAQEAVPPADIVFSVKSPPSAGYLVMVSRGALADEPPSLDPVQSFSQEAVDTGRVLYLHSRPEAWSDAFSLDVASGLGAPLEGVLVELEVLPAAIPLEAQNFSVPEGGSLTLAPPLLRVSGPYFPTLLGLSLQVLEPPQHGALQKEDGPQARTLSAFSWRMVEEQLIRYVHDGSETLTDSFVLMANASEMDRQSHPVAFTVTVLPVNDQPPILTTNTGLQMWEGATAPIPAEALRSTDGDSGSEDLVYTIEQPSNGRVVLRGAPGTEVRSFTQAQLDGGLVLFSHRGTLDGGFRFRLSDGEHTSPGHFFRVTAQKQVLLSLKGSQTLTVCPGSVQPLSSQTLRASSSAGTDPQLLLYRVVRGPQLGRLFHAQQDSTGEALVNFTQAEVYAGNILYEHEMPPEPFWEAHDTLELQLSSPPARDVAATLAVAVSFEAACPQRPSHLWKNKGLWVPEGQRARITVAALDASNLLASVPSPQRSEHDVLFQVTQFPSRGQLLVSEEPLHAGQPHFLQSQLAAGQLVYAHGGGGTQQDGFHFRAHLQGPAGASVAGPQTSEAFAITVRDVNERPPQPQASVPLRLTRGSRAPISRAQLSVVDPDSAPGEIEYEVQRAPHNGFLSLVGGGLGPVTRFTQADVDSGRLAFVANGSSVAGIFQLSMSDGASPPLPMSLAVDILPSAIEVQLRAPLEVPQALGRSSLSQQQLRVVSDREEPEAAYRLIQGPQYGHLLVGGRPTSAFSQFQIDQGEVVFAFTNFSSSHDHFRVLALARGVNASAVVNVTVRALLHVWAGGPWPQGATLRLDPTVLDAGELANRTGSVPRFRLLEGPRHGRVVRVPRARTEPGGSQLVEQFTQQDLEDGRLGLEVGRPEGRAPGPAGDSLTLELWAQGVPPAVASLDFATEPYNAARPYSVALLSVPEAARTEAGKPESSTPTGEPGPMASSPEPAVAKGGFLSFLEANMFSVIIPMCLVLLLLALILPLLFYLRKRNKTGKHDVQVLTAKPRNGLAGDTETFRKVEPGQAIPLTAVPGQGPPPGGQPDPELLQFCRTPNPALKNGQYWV

Experiments:
[1] = target: human chondroitin sulfate proteoglycan 4 (CSPG4) on cells (human) (UniProt Q6UVK1); test: IHC, human melanoma tissue sample 2671, 1 µg/mL
[2] = target: human chondroitin sulfate proteoglycan 4 (CSPG4) on cells (human) (UniProt Q6UVK1); test: FACS on M14 cells, % of MFI of maximum binding (5 µg), FITC goat anti-mouse secondary
[3] = target: human chondroitin sulfate proteoglycan 4 (CSPG4) on cells (human) (UniProt Q6UVK1); test: IHC, human melanoma tissue sample 524, 1 µg/mL
[4] = target: human chondroitin sulfate proteoglycan 4 (CSPG4) on cells (human) (UniProt Q6UVK1); test: IHC, human melanoma tissue sample 2659, 1 µg/mL
[5] = target: human chondroitin sulfate proteoglycan 4 (CSPG4) on cells (human) (UniProt Q6UVK1); test: IHC, normal human tissue, ileum, 1 µg/mL
[6] = target: human chondroitin sulfate proteoglycan 4 (CSPG4) on cells (human) (UniProt Q6UVK1); test: flow cytometry on CSPG4+ M14 cells after repeated washes
[7] = target: human chondroitin sulfate proteoglycan 4 (CSPG4) on cells (human) (UniProt Q6UVK1); test: IHC, human melanoma tissue sample 2655, 1 µg/mL
[8] = target: human chondroitin sulfate proteoglycan 4 (CSPG4) on cells (human) (UniProt Q6UVK1); test: IHC, normal human tissue, stomach, 1 µg/mL
[9] = target: human chondroitin sulfate proteoglycan 4 (CSPG4) on cells (human) (UniProt Q6UVK1); test: IHC, human melanoma tissue sample 508, 1 µg/mL
[10] = target: human chondroitin sulfate proteoglycan 4 (CSPG4) on cells (human) (UniProt Q6UVK1); test: IHC, human melanoma tissue sample 2667, 1 µg/mL
[11] = target: human chondroitin sulfate proteoglycan 4 (CSPG4) on cells (human) (UniProt Q6UVK1); test: IHC, human melanoma tissue sample 2668, 1 µg/mL
[12] = target: human chondroitin sulfate proteoglycan 4 (CSPG4) on cells (human) (UniProt Q6UVK1); test: flow cytometry on CSPG4+ M14 cells after repeated washes with PBS / 2 mM EDTA, FITC goat anti-mouse secondary
[13] = target: human chondroitin sulfate proteoglycan 4 (CSPG4) on cells (human) (UniProt Q6UVK1); test: IHC, human melanoma tissue sample 2669, 1 µg/mL
[14] = target: human chondroitin sulfate proteoglycan 4 (CSPG4) on cells (human) (UniProt Q6UVK1); test: IHC, normal human tissue, sigmoid colon, 1 µg/mL
[15] = target: human chondroitin sulfate proteoglycan 4 (CSPG4) on cells (human) (UniProt Q6UVK1); test: IHC, human melanoma tissue sample 2715, 1 µg/mL
[16] = target: human chondroitin sulfate proteoglycan 4 (CSPG4) on cells (human) (UniProt Q6UVK1); test: IHC, human melanoma tissue sample 2664, 1 µg/mL
[17] = target: human chondroitin sulfate proteoglycan 4 (CSPG4) on cells (human) (UniProt Q6UVK1); test: IHC, human melanoma tissue sample 2003, 1 µg/mL
[18] = target: human chondroitin sulfate proteoglycan 4 (CSPG4) on cells (human) (UniProt Q6UVK1); test: IHC, human melanoma tissue sample 2657, 1 µg/mL
[19] = target: human chondroitin sulfate proteoglycan 4 (CSPG4) on cells (human) (UniProt Q6UVK1); test: IHC, human melanoma tissue sample 319, 1 µg/mL
[20] = target: human chondroitin sulfate proteoglycan 4 (CSPG4) on cells (human) (UniProt Q6UVK1); test: IHC, human melanoma tissue sample 2716, 1 µg/mL
[21] = target: human chondroitin sulfate proteoglycan 4 (CSPG4) on cells (human) (UniProt Q6UVK1); test: IHC, human melanoma tissue sample 2658, 1 µg/mL
[22] = target: D2.8.11, a peptide epitope for murine 763 (human); test: SPR (Biacore T-100), D2.8.11-coated chip, composite normalized sensorgram

Measured: binding

B1: murine anti-CSPG4 antibody 763.74 (antibody, V domains shown)
VH: QIQLVQSGPELKKPGETVKISCKASGYTFTDYSMHWVKKTPGKGLKWLGWINTATGEPTYADDFKGRFAISLETSARTVYLQINNLRNEDTATYFCFSYYDYWGQGTTLTVS
VL: DIKLSQSPSILSVTPGETVSLSCRASQTIYKNLHWYQQKSHRSPRLLIKYGSDSISGIPSRFTGSGSGTDYTLNINSVKPEDEGIYYCLQGYSTPWTFGGGTKLEIK
binds: all assays above

B2: ch763IgG1, chimeric 763 HC and LC in IgG1 format (antibody, V domains shown)
VH: QIQLVQSGPELKKPGETVKISCKASGYTFTDYSMHWVKKTPGKGLKWLGWINTATGEPTYADDFKGRFAISLETSARTVYLQINNLRNEDTATYFCFSYYDYWGQGTTLTVSA
VL: DIKLSQSPSILSVTPGETVSLSCRASQTIYKNLHWYQQKSHRSPRLLIKYGSDSISGIPSRFTGSGSGTDYTLNINSVKPEDEGIYYCLQGYSTPWTFGGGTKLEIKR
binds: [22]
